Columns and labels:
primary AML samples = experiment: HLA class I ligandome analysis (W6/32 immunoaffinity purification, LC-MS/MS) of primary AML samples; set-up: species or system human; settings: AML patients (n=15)
[1] = tested on: cancer tissues in comparison to non-cancerous tissues and organs; experiment: Presentation profile / over-presentation by label-free LC-MS (XPRESIDENT), tumor versus normal tissues, other proliferative diseases; set-up: species or system human; settings: other proliferative diseases / organs (other than AML) that over- or exclusively present the peptide; Table 5
[2] = HLA class I ligandome, count for the HLA ligand (LiTAP) or, on protein lines, for the source protein (LiTAA)

Row | Substance | Number of positive AMLs (primary AML samples; HLA ligand (LiTAP)) | Proliferative disease and location thereof [1] | Number of positive AMLs (primary AML samples; [2])
1 | 324 (YELHVFTF; listed as Homo sapiens) [compound 324] | 1 | colon, adenoma | 
2 | 1 (AEQFRLEQI; listed as Homo sapiens) [compound 1] |  | colon or rectum, lung, small cell carcinoma | 1
3 | 205 (KIAKQIVQK; listed as Homo sapiens) [compound 205] |  | lung, non-small cell lung carcinoma, lung, neuroendocrine carcinoma | 1
4 | 85 (THGKLVILF; listed as Homo sapiens) [compound 85] |  | lung, non-small cell lung carcinoma, spleen, chronic myeloid leukemia | 2
5 | 29 (DEFITVHSM; listed as Homo sapiens) [compound 29] |  | stomach, skin, basal cell carcinoma | 1
6 | 3 (HHDESVLTNVF; listed as Homo sapiens) [compound 3] |  | colon or rectum, lung, small cell carcinoma | 3
7 | 148 (TLKSGDGITF; listed as Homo sapiens) [compound 148] |  | kidney, clear cell renal cell carcinoma, stomach, gastrointestinal stromal tumor (GIST) | 1
8 | 321 (KLLAEVTLK; listed as Homo sapiens) [compound 321] | 1 | breast, carcinoma | 
9 | 291 (YVFPGVTRL; listed as Homo sapiens) [compound 291] | 1 | stomach, metastatic, prostate, benign nodular; hyperplasia | 
10 | 176 (EVIETEKTLY; listed as Homo sapiens) [compound 176] |  | colon or rectum, breast, mucinous carcinoma | 1
11 | 134 (IIFDRPLLY; listed as Homo sapiens) [compound 134] |  | stomach, adenocarcinoma, parathyroid gland, adenoma | 3
12 | 184 (KAVPSQKRT; listed as Homo sapiens) [compound 184] |  | lung, non-small cell lung carcinoma, stomach, adenocarcinoma | 1
13 | 251 (VLGGKAFLEHL; listed as Homo sapiens) [compound 251] | 1 | stomach, endometrium, adenocarcinoma | 
14 | 78 (FLTILPEEL; listed as Homo sapiens) [compound 78] |  | pancreas, adenocarcinoma, lung, adenocarcinoma | 1
15 | 121 (NATDLLKVL; listed as Homo sapiens) [compound 121] |  | liver, hepatocellular carcinoma, kidney, renal cell carcinoma | 2
16 | 186 (SLIAVFQKY; listed as Homo sapiens) [compound 186] |  | lung, non-small cell lung carcinoma, stomach, adenocarcinoma | 1
17 | 124 (VAINLIVQH; listed as Homo sapiens) [compound 124] |  | stomach, metastatic, rectum, adenocarcinoma | 1
18 | 238 (GTLSGGILSSGK; listed as Homo sapiens) [compound 238] |  | stomach, differentiated subtype adenocarcinoma, uterine, cervix, squamous cell carcinoma | 1
19 | 143 (YQRETPQV; listed as Homo sapiens) [compound 143] |  | liver, hepatocellular carcinoma, fibromatosis | 1

Row | Substance | Number of positive AMLs (primary AML samples; HLA ligand (LiTAP)) | Proliferative disease and location thereof [1] | Number of positive AMLs (primary AML samples; [2])
20 | 44 (TRMSTVSEL; listed as Homo sapiens) [compound 44] |  | stomach, metastatic, adenocarcinoma | 1
21 | 236 (ETIDSRVQEY; listed as Homo sapiens) [compound 236] |  | colon or rectum, ovary, teratoma | 3
22 | 308 (LMAEMGVHSV; listed as Homo sapiens) [compound 308] | 1 | stomach, metastatic, breast, carcinoma | 
23 | 301 (EVTGHSKGY; listed as Homo sapiens) [compound 301] | 2 | stomach, adenocarcinoma, rectum, adenocarcinoma | 
24 | 6 (VQREYNLNF; listed as Homo sapiens) [compound 6] |  | colon or rectum, lung, small cell carcinoma | 1
25 | 168 (FPRFVNVTV; listed as Homo sapiens) [compound 168] |  | spleen, chronic myeloid leukemia | 1
26 | 97 (KVLALVFGF; listed as Homo sapiens) [compound 97] |  | kidney, angiomyolipoma | 1
27 | 9 (REDKPPLAV; listed as Homo sapiens) [compound 9] |  | kidney, clear cell renal cell carcinoma, bone, non- ossifying fibroma | 1
28 | 214 (YLLQRAVEV; listed as Homo sapiens) [compound 214] |  | colon or rectum, synovial sarcoma | 2
29 | 177 (MKILNHPNI; listed as Homo sapiens) [compound 177] |  | colon or rectum, lung, squamous cell carcinoma | 1
30 | 224 (NVIDYGHASKY; listed as Homo sapiens) [compound 224] |  | kidney, clear cell renal cell carcinoma, spleen, non-Hodgkin's lymphoma | 1
31 | 10 (RVKDLDTEKY; listed as Homo sapiens) [compound 10] |  | kidney, clear cell renal cell carcinoma, bone, non- ossifying fibroma | 2
32 | 145 (IPYPRPIHL; listed as Homo sapiens) [compound 145] |  | liver, focal nodular hyperplasia | 2
33 | 314 (DHFTGAIEKL; listed as Homo sapiens) [compound 314] | 2 | stomach, metastatic, breast, carcinoma | 
34 | 302 (RDSEELLQI; listed as Homo sapiens) [compound 302] | 1 | stomach, adenocarcinoma, rectum, adenocarcinoma | 
35 | 50 (VQFIGRESKY; listed as Homo sapiens) [compound 50] |  | colon or rectum, liver, focal nodular hyperplasia | 1
36 | 217 (DTFPGPYAVL; listed as Homo sapiens) [compound 217] |  | liposarcoma | 2
37 | 13 (LPLRFWVNI; listed as Homo sapiens) [compound 13] |  | liver, hepatocellular carcinoma, cancer, pancreas, adenocarcinoma | 1
38 | 252 (YEFERTTSI; listed as Homo sapiens) [compound 252] | 2 | stomach, endometrium, adenocarcinoma | 
